For 1 substance, binding results are on record in PMC12412668.

For the experiment, the target named is T1, CD96v1-BioID2-HA (human) (UniProt P40200).
T1 sequence: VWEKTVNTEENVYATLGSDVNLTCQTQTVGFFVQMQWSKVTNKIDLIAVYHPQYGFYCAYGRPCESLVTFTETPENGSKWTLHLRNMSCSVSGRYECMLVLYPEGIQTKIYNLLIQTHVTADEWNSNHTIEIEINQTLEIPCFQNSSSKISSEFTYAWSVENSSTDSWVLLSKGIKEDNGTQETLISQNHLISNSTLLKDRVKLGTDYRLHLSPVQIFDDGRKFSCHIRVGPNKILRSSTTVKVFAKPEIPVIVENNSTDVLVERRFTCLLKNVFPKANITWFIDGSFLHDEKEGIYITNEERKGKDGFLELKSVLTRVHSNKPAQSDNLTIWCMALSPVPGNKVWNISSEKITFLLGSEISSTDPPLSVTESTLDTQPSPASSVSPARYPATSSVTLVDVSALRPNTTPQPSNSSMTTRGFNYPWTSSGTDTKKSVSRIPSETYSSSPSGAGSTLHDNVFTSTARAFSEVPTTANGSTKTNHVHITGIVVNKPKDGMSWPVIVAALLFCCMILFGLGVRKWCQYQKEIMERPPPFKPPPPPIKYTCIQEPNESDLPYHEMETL
The experiment can be described thus: co-IP; 293T cells co-transfected with CD96v1-BioID2-HA and AU1-tagged Nef or Vpu; lysed in 50 mM tris, 0.5% Brij 98, 150 mM NaCl; CD96 precipitated with anti-HA antibody and protein G Sepharose at 4°C; blots with anti-HA and anti-AU1.

Results are given in words; binding and its absence hold for the method and conditions named. In cells and extracts the contact can be indirect. Sequences can lack the tags named with a protein.

As to AU1-tagged HIV-1 Nef, the binding entry is “no binding”.
